The text below walks through data of PubChem BioAssay AID1487 (National Center for Advancing Translational Sciences (NCATS), 2009).

Structures are written as SMILES. This is one part of the list. Shown are side measurements of this screen, not its main read-out; they come without a call. The list favours compounds with an active or inconclusive main result. Words in brackets tell the shape of the fitted curve; partial curves, single points and poor fits give uncertain potencies.

The test can be described thus: qHTS Assay for Modulators of Lamin A Splicing. The conditions noted are these: HeLa LMNA splicing GFP/RFP minigene ratio, 48 h. The procedure, abridged: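 S3 HeLa cells stably expressing lamin A-EGFP splicing minigene plus DsRed2, 600 cells/well, 48 h compound exposure at 37C. Laser-scanning cytometry; analysed as GFP (500-530 nm)/RFP (575-640 nm) total intensity ratio; 0.5% DMSO vehicle.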
For orientation: In qHTS, concentration-response curves come from the screen itself.

[1] abbreviates: measured here: RFP viability control channel.
Where [2] appears, read: measured here: GFP splicing reporter channel.

For orientation: AC50 means the concentration giving half of the maximal activity seen. For the compound `Cc1ccc(S(=O)(=O)n2nc(OC(=O)c3c(-c4ccccc4Cl)noc3C)cc2N)cc1`, under setting [1], the AC50 is 12.6 µM [rising, single point].
For the compound `FC(F)(F)c1nnc2c(Sc3ccccn3)nc3ccccc3n12`, the AC50 was 5.62 µM [falling, full curve] under setting [2] and 11.2 µM [falling, partial curve] under setting [1].
As to `C=CCN1C(=Nc2ccccc2)SC/C1=C\C(=O)OC`, the concentration at half-maximal activity (AC50) under setting [2] was 35.5 µM [rising, single point].
Still for that read-out and setting: the same measure for `O=c1[nH]cc(C(F)(F)F)cc1NS(=O)(=O)c1ccc([N+](=O)[O-])cc1`: 0.501 µM [rising, full curve, poor fit].
`NS(=O)(=O)c1cc(C(=O)O)cc(N2CCCC2)c1Oc1ccccc1`: the AC50 reads like this: under setting [2], 0.158 µM [falling, single point]; under setting [1], 0.00398 µM [falling, full curve, poor fit].
Consider `CCOc1ccc(Nc2nc(Cc3nnc(SCC(=O)c4ccc(C)c(C)c4)o3)cs2)cc1`, for which the AC50 under setting [1] is 12.6 µM [rising, partial curve].
Regarding `C[C@H]1Cc2c(-c3ccccc3)nc3c(c2CO1)CN(S(=O)(=O)c1ccc(Cl)c2nonc12)CC3`, the AC50 runs as follows: under setting [2], 6.31 µM [falling, single point]; under setting [1], 3.98 µM [falling, partial curve, poor fit].
Take `COc1cccc(NS(=O)(=O)c2ccc(OC)c(OC)c2)c1`: the AC50 under setting [1] was 15.8 µM [rising, single point].
Turning to `O=C(Nc1ccc(N2CCN(C(=O)c3ccc(Cl)cc3)CC2)cc1)c1cc2ccccc2o1`, the AC50 under setting [2] was 5.01 µM [rising, full curve].
As to `Cn1c(SCC(=O)c2ccccc2)nnc1-c1ccncc1`, under setting [2], the AC50 was 35.5 µM [falling, single point].
With `CCOC(=O)c1ccc2c(c1)N(CC(=O)Nc1ccc(CC)cc1)C(=O)c1ccccc1S2`, the AC50 was 14.1 µM [falling, partial curve] under setting [2] and 12.6 µM [falling, single point] under setting [1].
Take `Cc1cc(N/N=C/c2cccc(Cl)c2)nc(NCc2ccccc2)n1`: the AC50 under setting [1] is 12.6 µM [rising, partial curve].
In the case of `CN(C)CCCN1c2ccccc2Sc2ccccc21`, the AC50 under setting [2] is 0.02 µM [falling, full curve, poor fit] and the AC50 under setting [1] is 35.5 µM [rising, single point].
Consider `CCN(Cc1ccccc1)c1ccc(N=Nc2nn(C)c(C)c2[N+](=O)[O-])cc1`, for which the AC50 is 20 µM [rising, single point] under setting [2] and 28.2 µM [rising, single point] under setting [1].
With `CN(CCCNC(=O)c1cn(C)c2ccc(S(=O)(=O)N(C)C)cc2c1=O)c1ccccc1`, the half-maximal activity concentration (AC50) under setting [1] is 35.5 µM [rising, single point].
